From paper PMC4618059

T1: MAS C-terminal tail (Ct) peptide, residues 301 to 325 of human MAS receptor, N-terminal biotin, C316S (human)
T1 sequence (peptide, biotin on the N-terminus): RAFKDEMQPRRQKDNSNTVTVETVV

B1: ACOT9 (protein, UniProt Q9Y305 22-439)
chain: LTQGPQNPKKQGIFHIHEVRDKLREIVGASTNWRDHVKAMEERKLLHSFLAKSQDGLPPRRMKDSYIEVLLPLGSEPELREKYLTVQNTVRFGRILEDLDSLGVLICYMHNKIHSAKMSPLSIVTALVDKIDMCKKSLSPEQDIKFSGHVSWVGKTSMEVKMQMFQLHGDEFCPVLDATFVMVARDSENKGPAFVNPLIPESPEEEELFRQGELNKGRRIAFSSTSLLKMAPSAEERTTIHEMFLSTLDPKTISFRSRVLPSNAVWMENSKLKSLEICHPQERNIFNRIFGGFLMRKAYELAWATACSFGGSRPFVVAVDDIMFQKPVEVGSLLFLSSQVCFTQNNYIQVRVHSEVASLQEKQHTTTNVFHFTFMSEKEVPLVFPKTYGESMLYLDGQRHFNSMSGPATLRKDYLVEP
B2: SNTB1 (mouse) (protein, UniProt Q99L88 1-537)
chain: MAVAAAAVAAPAGGGGARAQRSGLLEVLVRDRWHKVLVNLSEDALVLSCEEGAAAYNGIGAATNGSFCRGSGTGHPVPGVAQAPDSPAGVRTAFTDLPEQVPESISNQKRGVKVLKQELGGLGISIKGGKENKMPILISKIFKGLAADQTQALYVGDAILSVNGADLRDATHDEAVQALKRAGKEVLLEVKYMREATPYVKKGSPVSEIGWETPPPESPRLGGGSAEPLSSQSFSFHRDRKSIPLKMCYVTRNMTLADPENRQLEIHSPDAKHTVILRSKDSATAQAWFSAIHSNAGDLLTRVVADIREQLGKTGIAGSREIRHLGWLAEKVPGESEKQWKPALVVLTEKDLLIYDSMPRRKEAWFSPVHSYPLLATRLVHSGPGKGSPQAGMDLSFATRTGTKQGIETHLFRAEISRDLSHWTRSIVQGCHNSAELTAEITTACTYRNQECRLTIHYDNGFSISTEPQDGAFPKTIIQSPYEKLKMSSDDGIRMLYLDFGGKEGEIQLDLHSCPKPIVFIIHSFLSAKITRLGLVA
B3: DTNA (mouse) (protein, UniProt Q9D2N4 1-746)
chain: MIEDSGKRGNTMAERRQLFAEMRAQDLDRIRLSTYRTACKLRFVQKKCNLHLVDIWNVIEALRENALNNLDPNIELNVARLEAVLSTIFYQLNKRMPTTHQIHVEQSISLLLNFLLAAFDPEGHGKISVFAVKMALATLCGGKIMDKLRYIFSMISDSSGVMVYGRYDQFLREVLKLPTAVFEGPSFGYTEQSARSCFSQQKKVTLNGFLDTLMSDPPPQCLVWLPLLHRLANVENVFHPVECSYCHSESMMGFRYRCQQCHNYQLCQDCFWRGHAGGSHSNQHQMKEYTSWKSPAKKLTNALSKSLSCASSREPLHPMFPDQPEKPLNLAHIVPPRPVTSMNDTLFSHSVPSSGSPFITRSSPPKDSEVEQNKMLARAAPAFLKGRGIQYSLNVADRLADEHVLIGLYVNMLRNDPPCMLESSNRLDEEHRLIARYAARLAAESSSSQPTQQRSAPDISFTIDANKQQRQLIAELENKNREILQEIQRLRVEHEQASQPTPEKAQQNPTLLAELRLLRQRKDELEQRMSALQESRRELMVQLEGLMKLLKEEELKQGTQGASSPRSSPSHTISRPIPMPIRSASACPTPTHTPQDSLTGVGGDVQEAFAQSSRRNLRSDLLVAADSITNTMSSLVKELNSEVASETESTVDSEFSRPQFEDLAPSPTSEKAFLAQIHSRKPGYIHGGAASTTHGDMVPEDGDPYTQPEDGNYENESVRQLENELQLEEYLKQKLQDEAYQVSLQG
B4: DTNB (mouse) (protein, UniProt O70585 1-659)
chain: MIEEGGNKRKTMAEKRQLFIEMRAQNFDVIRLSTYRTACKLRFVQKRCNLHLVDIWNMIEAFRDNGLNTLDHSTEISVSRLETVISSIYYQLNKRLPSTHQISVEQSISLLLNFMVAAYDSEGRGKLTVFSVKAMLATMCGGKMLDKLRYIFSQMSDSNGLMMFGKLDQFLKEALKLPTAVFEGPSFGYTEHAVRTCFPQQKKIMLNMFLDTMMADPPPQCLVWLPLMHRLAHVENVFHPVECSYCHCESMMGFRYRCQQCHNYQLCQNCFWRGHASGAHSNQHQMKEHSSWKSPAKKLSHAISKSLGCVPSREPPHPVFPEQPEKPLDLAHLVPPRPLTNMNDTVVSHMSSGVPTPTKRLQYSQDMPNLLADEHALIASYVARLQHCTRVLDSPSRLDEEHRLIARYAARLAAEAGNMTRPPTDASFNFDANKQQRQLIAELENKNREILQEIQRLRLEHEQASQPTPEKAQQNPMLLAELRLLRQRKDELEQRMSALQESRRELMVQLEGLMKLLKAQATGSPHTSPTHGGGRPMPMPVRSTSAGSTPTHGPQDSLSGVGGDVQEAFAQGTRRNLRNDLLVAADSITNTMSSLVKELHSGAEAEEQAGTEKTREGLPPRGTFLSVFLLHTWTKLAGCQTHSTSRERSQAYGKWGGTA
B5: SC24C (mouse) (protein, UniProt G3X972 1-1096)
chain: MNVNQSAPPVPPYGQNQPIYPGYHQSSYGGQPGPAAPATPYGAYNGPVPGYQQAPPQGVPRAPPSSGAPPASAAQVPCGQTTYGQFGQGDIQNGPSSTAQMQRVPGSQQFGPPLAPVVSQPAVLQPYGPPPTSTQVTAQLAGMQISGAVAQAPPPSGLGYGPPTSLASASGNFPNSGPYGSYPQSQAPPLSQAQGHPGVQPPLRSAPPLASSFTSPASGGPQMPSMTGLLPPGQGFGSLPVNQANHVSSPPAPALPPGTQMTGPPVPPPPPMHSPQQPGYQLQQNGSFGPARGPQPNYESPYPGAPTFGSQPGPPQPLPPKRLDPDAIPSPIQVIEDDRNNRGSEPFVTGVRGQVPPLVTTNFLVKDQGNASPRYIRCTSYNIPCTSDMAKQAQVPLAAVIKPLARLPPEEASPYVVDHGESGPLRCNRCKAYMCPLMTFIEGGRRFQCSFCSCVNDVPPQYFQHLDHTGKRVDAYDRPELSLGSYEFLATVDYCKNNKFPSPPAFIFMIDVSYNAIRTGLVRLLCEELKSLLDYLPREGGAEESAIRVGFVTYNKVLHFYNVKSSLAQPQMMVVSDVADMFVPLLDGFLVNVSESRAVITSLLDQIPEMFADTRETETVFAPVIQAGMEALKAAECAGKLFLFHTSLPIAEAPGKLKNRDDRKLINTDKEKTLFQPQTGTYQTLAKECVAQGCCVDLFLFPNQYVDVATLSVVPQLTGGSVYKYACFQVENDQERFLSDLRRDVQKVVGFDAVMRVRTSTGIRAVDFFGAFYMSNTTDVELAGLDGDKTVTVEFKHDDRLNEENGALLQCALLYTSCAGQRRLRIHNLALNCCTQLADLYRNCETDTLINYMAKFAYRAVLNSPVKTVRDTLITQCAQILACYRKNCASPSSAGQLILPECMKLLPVYLNCVLKSDVLQPGAEVTTDDRAYVRQLVSSMDVAETNVFFYPRLLPLTKSPLDSTAEPPAVRASEERLSSGDIYLLENGLNLFVWVGASVQQGVVQSLFNVSSFSQITSGLSVLPVLDNPLSKKVRGLIDSLRAQRMRYMKLIVVKQEDKLEMLFKHFLVEDKSLSGGASYVDFLCHMHKEIRQLLS
B6: SGCD (protein, UniProt P82347 1-289)
chain: MPQEQYSHHRSTMPSSEGPHIYKVGIYGWRKRCLYFFVLLLMILILVNLAMTIWILKVMNFTIDGMGNLRITEKGLKLEGDSEFLQPLYAKEIKSRPGNALYFKSARNVTVNILNDQTKVLTQLVTGPKAVEAYGKRFEVKTVSGKLLFSADDSEVVVGAERLRVLGAEGTVFPKSIETPNVRADPFKELRLESPTRSLVMEAPKGVEINAEAGNMEAICRSELRLESKDGEIKLDAAKIKLPRLPRGSYTPTGTRQKVFEVCVCANGRLFLSQAGTGSTCQINTSVCL
B7: SHOC2 (protein, UniProt O88520 1-582)
chain: MSSSLGKEKDSKEKDPKVPSAKEREKESKASGGFGKESKEKEPKAKGKDAKDGKKESSAAQPGVAFSVDNTIKRPNPAPGTRKKSSNAEVIKELNKCREENSMRLDLSKRSIHILPPSVKELTQLTELYLYSNKLQSLPAEVGCLVNLMTLALSENSLTSLPDSLDNLKKLRMLDLRHNKLREIPSVVYRLDSLTTLYLRFNRITTVEKDIKNLPKLSMLSIRENKIKQLPAEIGELCNLITLDVAHNQLEHLPKEIGNCTQITNLDLQHNDLLDLPDTIGNLSSLNRLGLRYNRLSAIPRSLAKCSALEELNLENNNISTLPESLLSSLVKLNSLTLARNCFQLYPVGGPSQFSTIYSLNMEHNRINKIPFGIFSRAKVLSKLNMKDNQLTSLPLDFGTWTSMVELNLATNQLTKIPEDVSGLVSLEVLILSNNLLKKLPHGLGNLRKLRELDLEENKLESLPNEIAYLKDLQKLVLTNNQLSTLPRGIGHLTNLTHLGLGENLLTHLPEEIGTLENLEELYLNDNPNLHSLPFELALCSKLSIMSIENCPLSHLPPQIVAGGPSFIIQFLKMQGPYRAMV
B8: SNTA1 (mouse) (protein, UniProt Q61234 1-503)
chain: MASGRRAPRTGLLELRCGAGSGAGGERWQRVLLSLAEDALTVSPADGEPGPEPEPAQLNGAAEPGAAPPQLPEALLLQRRRVTVRKADAGGLGISIKGGRENKMPILISKIFKGLAADQTEALFVGDAILSVNGEDLSSATHDEAVQALKKTGKEVVLEVKYMKEVSPYFKNSAGGTSVGWDSPPASPLQRQPSSPGPQPRNLSEAKHVSLKMAYVSRRCTPTDPEPRYLEICAADGQDAVFLRAKDEASARSWAGAIQAQIGTFIPWVKDELQALLTATGTAGSQDIKQIGWLTEQLPSGGTAPTLALLTEKELLFYCSLPQSREALSRPTRTAPLIATSSAHRLVHSGPSKGSVPYDAELSFALRTGTRHGVDTHLFSVESPQELAAWTRQLVDGCHRAAEGIQEVSTACTWNGRPCSLSVHIDKGFTLWAAEPGAARAMLLRQPFEKLQMSSDDGTSLLFLDFGGAEGEIQLDLHSCPKTMVFIIHSFLSAKVTRLGLLA

The binders below were run against T1, MAS C-terminal tail (Ct) peptide, residues 301 to 325 of human MAS receptor, N-terminal biotin, C316S (human) (assay: affinity purification with mass spectrometry; biotinylated MAS Ct peptide immobilised on NeutrAvidin agarose resin; human cardiac tissue lysate (~600 μg), overnight at 4°C; washes with D-PBS; elution with 2% SDS; LC-MS of whole gel lanes; resin alone as control; only the target purified).

binding, binds:
B1

What follows are binders tested against T1, MAS C-terminal tail (Ct) peptide, residues 301 to 325 of human MAS receptor, N-terminal biotin, C316S (human) (assay: affinity purification with mass spectrometry; biotinylated MAS Ct peptide immobilised on NeutrAvidin agarose resin; HL-1 cell lysate (~6 mg), overnight at 4°C; washes with D-PBS; elution with 2% SDS; LC-MS of whole gel lanes; resin alone as control; only the target purified).

binding, binds:
B2, B3, B4, B5, B6, B7, B8

No constants are given. Whether binding was seen depends on the method and setting. In cells and extracts the contact can be indirect. A yes stands for co-enrichment or nearness to the bait. Other partners may have been found.
